Results deposited as PubChem BioAssay AID1053208 (Peter MacCallum Cancer Centre, 2014).
This is a random part of about 17,000 reagents tested. 788 of all reagents (4.7%) count as active. 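Calls rest on z-score classes alone; an extra cut-off of viability at most 70% of control was not applied to them.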 Entries without a mark were called inactive. Not all columns of the deposit are shown.

Assay: 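Find knock-downs that sensitise mouse osteosarcoma cells to doxorubicin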 (primary screen)
Cells: mouse osteosarcoma cells, early-passage culture from an engineered mouse model of fibroblastic bone tumour
Knock-down reagent: siRNA pool against mouse genes, 40 nM
Timing: about 120 h (48 h before drug, then 72 h with drug)
Conditions: doxorubicin 100 nM for 72 h, roughly 30-40% inhibitory dose
Detection: 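Luminescent ATP signal taken as viability with or without 100 nM doxorubicin for 72 h; mean of two wells set against non-targeting siRNA and turned into robust z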
Reading the numbers: viability z-score with doxorubicin: higher = more viable cells under doxorubicin; viability z-score without drug: higher = more viable cells with knock-down alone
Hit rule: 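Called active if knock-down leaves viability unchanged without drug (z within -2 to 2) but lowers it with doxorubicin (z at or under -2)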

With Uso1, what was measured?
combined z-score class: no change with or without drug; viability z-score with doxorubicin: -0.45; viability z-score without drug: 0.17

Which result is listed for Zfp13?
combined z-score class: low cell count with doxorubicin only (active); viability z-score with doxorubicin: -2.92; viability z-score without drug: -1.01

What is on record for Ap3b1?
combined z-score class: low cell count with doxorubicin only (active); viability z-score with doxorubicin: -2.36; viability z-score without drug: -1.18

With Htr1d, how do the results read?
combined z-score class: no change with or without drug; viability z-score with doxorubicin: 0.9; viability z-score without drug: -0.34

What did the screen give for Mrps35?
combined z-score class: no change with or without drug; viability z-score with doxorubicin: 0.22; viability z-score without drug: -0.84

Which result is listed for Sort1?
combined z-score class: no change with or without drug; viability z-score with doxorubicin: 0; viability z-score without drug: 0.34

With Kap, what was measured?
combined z-score class: no change with or without drug; viability z-score with doxorubicin: -0.67; viability z-score without drug: 0.84

Which result is listed for Fibcd1?
combined z-score class: no change with or without drug; viability z-score with doxorubicin: -0.79; viability z-score without drug: -0.17

For E330013P04Rik, what was measured?
combined z-score class: no change with or without drug; viability z-score with doxorubicin: 0; viability z-score without drug: 1.85

With Shisa5, what does the deposit list?
combined z-score class: low cell count with doxorubicin only (active); viability z-score with doxorubicin: -2.59; viability z-score without drug: -1.52

How did the screen score Snrnp200?
combined z-score class: low cell count with and without drug; viability z-score with doxorubicin: -4.61; viability z-score without drug: -8.43

With Clcn6, what does the deposit list?
combined z-score class: no change with or without drug; viability z-score with doxorubicin: -1.35; viability z-score without drug: 0.34

With Klk1b7-ps, what was measured?
combined z-score class: no change with or without drug; viability z-score with doxorubicin: 1.12; viability z-score without drug: 0.51

For Chil6, what was measured?
combined z-score class: no change with or without drug; viability z-score with doxorubicin: 1.12; viability z-score without drug: -0.17

How did the screen score Robo1?
combined z-score class: no change with or without drug; viability z-score with doxorubicin: 0; viability z-score without drug: -0.51

How did the screen score Or10j27?
combined z-score class: low cell count with and without drug; viability z-score with doxorubicin: -2.92; viability z-score without drug: -2.7

With Atp6v0e2, what was measured?
combined z-score class: high cell count without drug only; viability z-score with doxorubicin: 1.24; viability z-score without drug: 2.87

How did the screen score HMGB2?
combined z-score class: no change with or without drug; viability z-score with doxorubicin: 0.9; viability z-score without drug: 0.17

With Areg, how do the results read?
combined z-score class: no change with or without drug; viability z-score with doxorubicin: 0.34; viability z-score without drug: 0.84

For Zfp384, what does the deposit list?
combined z-score class: no change with or without drug; viability z-score with doxorubicin: 0.56; viability z-score without drug: 1.18

With Neo1, how do the results read?
combined z-score class: no change with or without drug; viability z-score with doxorubicin: 0.56; viability z-score without drug: -1.18

For Tigd5, how do the results read?
combined z-score class: no change with or without drug; viability z-score with doxorubicin: 0.45; viability z-score without drug: -0.17

For Vsig8, how do the results read?
combined z-score class: no change with or without drug; viability z-score with doxorubicin: -1.35; viability z-score without drug: 0.34

With Smoc2, what does the deposit list?
combined z-score class: no change with or without drug; viability z-score with doxorubicin: 0; viability z-score without drug: 0

What did the screen give for Ighmbp2?
combined z-score class: no change with or without drug; viability z-score with doxorubicin: -1.69; viability z-score without drug: -0.51

With Vil1, what was measured?
combined z-score class: no change with or without drug; viability z-score with doxorubicin: 0.67; viability z-score without drug: 0.17

With Bhlhb9, how do the results read?
combined z-score class: no change with or without drug; viability z-score with doxorubicin: 0.45; viability z-score without drug: 0.17

What is on record for Ctdspl?
combined z-score class: high cell count with doxorubicin only; viability z-score with doxorubicin: 2.7; viability z-score without drug: 1.52

Which result is listed for Etl4?
combined z-score class: no change with or without drug; viability z-score with doxorubicin: 0.34; viability z-score without drug: 0.84

For Strn, what was measured?
combined z-score class: no change with or without drug; viability z-score with doxorubicin: 0.45; viability z-score without drug: 0.17

How did the screen score Zfp282?
combined z-score class: no change with or without drug; viability z-score with doxorubicin: 1.12; viability z-score without drug: 0.51

What is on record for Traf3ip2?
combined z-score class: no change with or without drug; viability z-score with doxorubicin: 0.22; viability z-score without drug: 0.17

How did the screen score Unc5b?
combined z-score class: no change with or without drug; viability z-score with doxorubicin: 0.45; viability z-score without drug: 0.67

What is on record for Asb7?
combined z-score class: no change with or without drug; viability z-score with doxorubicin: -1.69; viability z-score without drug: -0.67

For Nap1l5, what does the deposit list?
combined z-score class: no change with or without drug; viability z-score with doxorubicin: -1.57; viability z-score without drug: -0.17

With Fev, what does the deposit list?
combined z-score class: no change with or without drug; viability z-score with doxorubicin: -0.22; viability z-score without drug: -0.17

In a second layout: 4 of the entries above.
{"Target gene": "Htr1d", "combined z-score class": "no change with or without drug", "viability z-score with doxorubicin": 0.9, "viability z-score without drug": -0.34}
{"Target gene": "Mrps35", "combined z-score class": "no change with or without drug", "viability z-score with doxorubicin": 0.22, "viability z-score without drug": -0.84}
{"Target gene": "Sort1", "combined z-score class": "no change with or without drug", "viability z-score with doxorubicin": 0, "viability z-score without drug": 0.34}
{"Target gene": "Kap", "combined z-score class": "no change with or without drug", "viability z-score with doxorubicin": -0.67, "viability z-score without drug": 0.84}
